Results from PubChem BioAssay AID434947 (Broad Institute, 2010).
The campaign covered roughly 2,200 compounds. About 15 (0.7%) were called active.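 How the source made its calls: active means fitted half-maximal concentration for loss of luminescence signal no more than a set limit of log units above the top tested concentration; inconclusive means flat fit with 30 to 70% signal loss, or invalid fit; inactive means half-maximal concentration above that set limit.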 This is one part of the list.

Experiment: ADP-Glo luciferase signal interference – biochemical, luminescence, cell-free, homogeneous, artefact control for GSK3beta inhibitor project, dose response (AID 434947);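 further: kinase-free counter screen of ADP-Glo detection reagents for GSK3beta hits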
Conditions: Cell-free ADP-Glo reagents, 5 uM ADP
With `CCOC(=O)c1ccc(NS(=O)(=O)c2ccc3c(c2)NC(=O)CCS3)cc1` the EC50 was inactive: > 30 µM.
For `Cc1cc(C(=O)c2ccccc2)c(NC(=O)CN2CCOCC2)s1`, the EC50 was inactive: > 30 µM.
With `O=C(NC(Cc1ccccc1)c1ccc2c(c1)OCCCO2)c1ccccc1` (centres undefined) the EC50 was inactive: > 30 µM.
With `CCn1c(-c2ccc([N+](=O)[O-])cc2)n[nH]c1=S` the EC50 was inactive: > 30 µM.
For `COc1cccc(C(=O)C[n+]2ccccc2/C=N/O)c1`, the EC50 was inactive: > 30 µM.
In the case of `CCn1c(=O)c(C(=O)NNC(=O)c2ccccc2)c(O)c2ccccc21`, the EC50 was inactive: > 30 µM.
For `CCOc1ccccc1/C=N/NC(=O)c1nnn(-c2nonc2N)c1CN1CCCC1`, the EC50 was inactive: > 30 µM.
For `Cc1ccnc(NC(=O)c2cccc([N+](=O)[O-])c2C)c1`, the EC50 was inactive: > 30 µM.
For `CCCCOC(=O)C1=C(C)Nc2ncnn2C1c1cc(OC)c(OC)cc1OC` (centres undefined), the EC50 was inactive: > 30 µM.
In the case of `COc1ccc(CCNc2nc(-c3ccc(O)cc3)cs2)cc1OC`, the EC50 was inactive: > 30 µM.
For `OC(c1ccccc1)c1ccncc1` (centres undefined), the EC50 was inactive: > 30 µM.
In the case of `COc1ccc(C(=O)NC(=S)NC2CCCCC2)cc1`, the EC50 was inactive: > 30 µM.
For `O=C(Cn1cc[n+](CC(=O)c2ccc(Cl)cc2Cl)c1)c1ccc(Cl)cc1Cl`, the EC50 was inactive: > 30 µM.
With `Cc1c(C(=O)OCc2ccccc2)nnn1-c1nonc1N` the EC50 was inactive: > 30 µM.
For `O=C(CSc1ccc2nnc(-c3ccc(F)cc3)n2n1)N1CCOCC1`, the EC50 was inactive: > 30 µM.
For `CC1CCc2c(sc3nn[nH]c(=O)c23)C1` (centres undefined), the EC50 was inactive: > 30 µM.
For `Nc1nc(Nc2cccc(F)c2)nc(NCCO)c1[N+](=O)[O-]`, the EC50 was inactive: > 30 µM.
With `CCN1CCN(CCCNC(=O)c2ccc3c(c2)NC(=O)/C(=C\c2cccc(C)c2)S3)CC1` the EC50 was inactive: > 30 µM.
For `CCOc1cccc(-c2c(C(=O)N/N=C(\C)c3cccs3)nnn2-c2nonc2N)c1`, the EC50 was inactive: > 30 µM.
With `O=C(Nc1ccc(O)c2c(=O)cc(-c3ccccc3Cl)oc12)c1cccc(Cl)c1` the EC50 was inactive: > 30 µM.
For `NC(=O)c1cccc2c1C(=O)N(C1CCCCC1)C2`, the EC50 was inactive: > 30 µM.
With `CC1(C)CC(=O)C=C(Nc2cccc(C(F)(F)F)c2)C1` the EC50 was inactive: > 30 µM.
For `COc1ccc(C(=O)O/N=C(/C)c2cccs2)cc1`, the EC50 was active: 16.2 µM.
In the case of `COc1cccc(C(=O)C(C#N)=C(SC)SC)c1`, the EC50 was inactive: > 30 µM.
For `CCN1CCc2c(sc(NC(=O)Cc3ccccc3)c2C(N)=O)C1`, the EC50 was inactive: > 30 µM.
With `Clc1ccc(CSc2nnc(-c3ccncc3)o2)cc1` the EC50 was inactive: > 30 µM.
With `Cc1ccnc(NC(=O)c2ccccc2[N+](=O)[O-])c1` the EC50 was inactive: > 30 µM.
For `Cc1ccc(-c2n[nH]c(=S)n2/N=C/c2ccncc2)cc1`, the EC50 was inactive: > 30 µM.
For `Cc1ccc(C(=O)/C=C/c2ccc3ncccc3c2)cc1`, the EC50 was inactive: > 30 µM.
With `CCn1c(O)c(N=NC(=O)C(O)c2ccccc2)c2ccccc21` (centres undefined) the EC50 was inactive: > 30 µM.
In the case of `COc1ccc2nc(NC(=O)C3CCCO3)sc2c1` (centres undefined), the EC50 was inactive: > 30 µM.
In the case of `C=CCOC(=O)C1=C(C)Nc2ncnn2C1c1cccs1` (centres undefined), the EC50 was inactive: > 30 µM.
With `CCCC1=C(C(=O)OCC)C(c2cccs2)n2ncnc2N1` (centres undefined) the EC50 was inactive: > 30 µM.
For `Cc1ccc2c(c1)/C(=N/N1C(=O)c3ccccc3C1=O)C(=O)N2`, the EC50 was inactive: > 30 µM.
With `COc1cc(C(=O)N2CCN(c3ccccn3)CC2)cc(OC)c1OC` the EC50 was inactive: > 30 µM.
With `CCOC(=O)CC(=O)CSc1ccc2nnc(-c3ccc(C)cc3)n2n1` the EC50 was inactive: > 30 µM.
For `CCCN(CCC)Cc1c(C(=O)N/N=C/CCc2ccccc2)nnn1-c1nonc1N`, the EC50 was inactive: > 30 µM.
For `Cc1ccc(CNc2nc(N)c([N+](=O)[O-])c(Nc3ccc(F)cc3)n2)cc1`, the EC50 was inactive: > 30 µM.
In the case of `CCc1c(C)c2ccc(O)c(CN(C)C)c2oc1=O`, the EC50 was inactive: > 30 µM.
In the case of `COc1cccc2c1cc1c(=O)n(CC(=O)NCCCN3CCCCC3)nc(C)n12`, the EC50 was inactive: > 30 µM.
In the case of `CCCNC(=O)c1ccc(SCC(=O)N(CC)CC)c([N+](=O)[O-])c1`, the EC50 was inactive: > 30 µM.
With `Nc1nonc1-n1nnc(C(=O)N/N=C/c2cccc(Cl)c2)c1CN1CCCCCC1` the EC50 was inactive: > 30 µM.
With `CCc1ccc(/C=N/NC(=O)c2nnn(-c3nonc3N)c2CN2CCc3ccccc32)cc1` the EC50 was inactive: > 30 µM.
In the case of `O=c1cc(-c2ccccc2)c2c(O)cc(O)cc2o1`, the EC50 was inactive: > 30 µM.
For `COc1ccc(-c2nn(-c3ccccc3)cc2/C=N/N2C(=O)CSC2=S)cc1`, the EC50 was inactive: > 30 µM.
In the case of `COc1ccc(OC)c(C(=O)c2coc3ccc(OC(C)=O)cc23)c1`, the EC50 was inactive: > 30 µM.
For `COc1cc(NC2=CC(=O)CC(C)(C)C2)cc(OC)c1OC`, the EC50 was inactive: > 30 µM.
With `CSc1nc2n(n1)C(c1cccs1)C1=C(CCCC1=O)N2` (centres undefined) the EC50 was inactive: > 30 µM.
With `COc1cccc(C2C(C#N)=C(C)NC3=C2C(=O)CC(C)(C)C3)c1` (centres undefined) the EC50 was inactive: > 30 µM.
In the case of `CC(Sc1ccc2nnc(-c3ccc(F)cc3)n2n1)C(=O)O` (centres undefined), the EC50 was inactive: > 30 µM.
With `C/C(CC(=O)Nc1cc(C)ccn1)=N\NC(=O)C(=O)NC(C)C` the EC50 was inactive: > 30 µM.
In the case of `CC1(C)CC(=O)C2=C(C1)Nc1[nH]c(=S)[nH]c(=O)c1C2c1ccccc1` (centres undefined), the EC50 was inactive: > 30 µM.
For `COc1ccc(-c2nn(-c3ccccc3)cc2/C=N/Nc2ccc(Cl)c(C(=O)O)c2)cc1OC`, the EC50 was inactive: > 30 µM.
With `COc1ccc(C(=O)/C=C2/C(=O)Nc3ccccc32)c(OC)c1` the EC50 was inactive: > 30 µM.
In the case of `Cc1cnc(NC(=O)c2sc(Nc3ccccc3)nc2N)o1`, the EC50 was inactive: > 30 µM.
In the case of `N#Cc1c(N)n(-c2cccc(O)c2)c2nc3ccccc3nc12`, the EC50 was inactive: > 30 µM.
In the case of `CCOc1ccc(CNC(=O)Cn2ccc3cc(S(=O)(=O)N4CCCCCC4)ccc32)cc1`, the EC50 was inactive: > 30 µM.
For `COC(=O)c1cc(S(=O)(=O)N2CCCC(C)C2)c[nH]1` (centres undefined), the EC50 was inactive: > 30 µM.
With `N#CC(C#N)=C1NC(N)=C(C#N)C(c2ccccc2)=C1C#N` the EC50 was inactive: > 30 µM.
